According to the supplement of paper PMC10849652:
The other results are listed elsewhere or left out.

Chains of the proteins cited; added tags and fusions are not shown. Lines headed by an entry give the natural chain unless they say otherwise; changes in a name come on top.
UniProt Q9H6V9: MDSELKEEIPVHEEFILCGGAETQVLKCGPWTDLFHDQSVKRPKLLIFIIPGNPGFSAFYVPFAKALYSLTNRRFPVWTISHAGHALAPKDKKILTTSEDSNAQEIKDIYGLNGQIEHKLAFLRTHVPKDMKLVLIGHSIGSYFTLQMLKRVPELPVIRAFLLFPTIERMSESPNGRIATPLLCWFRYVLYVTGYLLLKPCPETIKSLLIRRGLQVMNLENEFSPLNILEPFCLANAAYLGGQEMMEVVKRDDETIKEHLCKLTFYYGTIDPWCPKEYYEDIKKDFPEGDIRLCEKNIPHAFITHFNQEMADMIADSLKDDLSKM
UniProt O00214: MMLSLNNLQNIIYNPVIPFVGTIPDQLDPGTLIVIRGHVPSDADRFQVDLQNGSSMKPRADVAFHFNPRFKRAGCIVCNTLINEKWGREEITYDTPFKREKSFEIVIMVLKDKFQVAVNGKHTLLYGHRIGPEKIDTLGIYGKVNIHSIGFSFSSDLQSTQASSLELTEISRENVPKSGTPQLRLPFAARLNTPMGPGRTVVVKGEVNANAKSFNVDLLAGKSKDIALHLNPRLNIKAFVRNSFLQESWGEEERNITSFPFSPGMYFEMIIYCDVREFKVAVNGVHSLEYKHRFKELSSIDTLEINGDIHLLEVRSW
UniProt O95777: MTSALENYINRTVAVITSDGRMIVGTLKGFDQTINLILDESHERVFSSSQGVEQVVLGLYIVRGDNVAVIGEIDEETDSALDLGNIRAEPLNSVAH
UniProt Q14847: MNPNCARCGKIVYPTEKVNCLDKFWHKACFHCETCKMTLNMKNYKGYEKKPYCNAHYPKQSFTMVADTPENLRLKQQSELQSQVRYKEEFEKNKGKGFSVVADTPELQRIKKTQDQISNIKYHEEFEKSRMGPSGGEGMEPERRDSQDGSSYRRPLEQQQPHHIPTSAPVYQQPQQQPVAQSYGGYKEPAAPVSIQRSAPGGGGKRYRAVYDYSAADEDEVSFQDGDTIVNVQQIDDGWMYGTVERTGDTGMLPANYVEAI
UniProt O95214: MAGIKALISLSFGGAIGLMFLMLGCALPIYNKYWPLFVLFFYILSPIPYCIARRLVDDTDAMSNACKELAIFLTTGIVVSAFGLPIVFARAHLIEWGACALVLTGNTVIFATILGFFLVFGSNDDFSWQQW
UniProt Q8NF37: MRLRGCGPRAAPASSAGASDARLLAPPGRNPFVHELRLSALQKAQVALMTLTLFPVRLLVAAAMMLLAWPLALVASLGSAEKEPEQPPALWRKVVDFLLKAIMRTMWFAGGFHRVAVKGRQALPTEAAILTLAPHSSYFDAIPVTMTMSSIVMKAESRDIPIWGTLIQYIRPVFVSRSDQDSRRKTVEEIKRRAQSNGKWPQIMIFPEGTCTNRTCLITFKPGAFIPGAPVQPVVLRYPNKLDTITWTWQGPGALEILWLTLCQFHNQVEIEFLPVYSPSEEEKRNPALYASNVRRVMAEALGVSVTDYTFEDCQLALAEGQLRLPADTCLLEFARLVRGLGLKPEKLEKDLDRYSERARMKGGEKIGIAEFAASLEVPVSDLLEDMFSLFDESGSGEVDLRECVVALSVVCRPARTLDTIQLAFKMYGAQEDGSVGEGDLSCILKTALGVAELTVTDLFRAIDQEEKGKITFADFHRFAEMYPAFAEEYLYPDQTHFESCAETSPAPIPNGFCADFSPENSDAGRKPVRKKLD
UniProt Q9Y546: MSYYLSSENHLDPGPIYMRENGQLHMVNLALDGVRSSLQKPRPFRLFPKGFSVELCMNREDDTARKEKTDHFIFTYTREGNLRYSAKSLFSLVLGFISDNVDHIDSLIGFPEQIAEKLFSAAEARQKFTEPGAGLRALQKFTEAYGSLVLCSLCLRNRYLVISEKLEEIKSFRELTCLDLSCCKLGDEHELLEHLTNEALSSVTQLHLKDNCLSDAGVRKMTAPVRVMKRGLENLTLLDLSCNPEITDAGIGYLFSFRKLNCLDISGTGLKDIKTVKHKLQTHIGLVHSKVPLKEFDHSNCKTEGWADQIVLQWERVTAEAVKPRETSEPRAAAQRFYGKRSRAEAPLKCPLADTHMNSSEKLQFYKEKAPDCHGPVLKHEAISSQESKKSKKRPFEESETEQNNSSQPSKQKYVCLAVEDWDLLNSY
UniProt P83369: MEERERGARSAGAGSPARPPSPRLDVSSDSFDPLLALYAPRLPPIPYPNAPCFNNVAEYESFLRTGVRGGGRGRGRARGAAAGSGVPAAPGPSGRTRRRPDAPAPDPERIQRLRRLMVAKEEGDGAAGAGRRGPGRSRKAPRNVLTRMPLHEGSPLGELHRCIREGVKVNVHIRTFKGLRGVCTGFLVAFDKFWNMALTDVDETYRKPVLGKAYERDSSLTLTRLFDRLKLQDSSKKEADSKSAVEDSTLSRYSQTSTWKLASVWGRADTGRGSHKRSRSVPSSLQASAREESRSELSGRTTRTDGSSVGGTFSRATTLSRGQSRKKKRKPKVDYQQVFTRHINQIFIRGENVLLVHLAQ
UniProt Q9BRT6: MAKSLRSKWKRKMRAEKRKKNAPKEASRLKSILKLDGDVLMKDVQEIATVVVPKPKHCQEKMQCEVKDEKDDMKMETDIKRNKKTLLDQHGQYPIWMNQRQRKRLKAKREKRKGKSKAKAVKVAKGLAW
UniProt O75581: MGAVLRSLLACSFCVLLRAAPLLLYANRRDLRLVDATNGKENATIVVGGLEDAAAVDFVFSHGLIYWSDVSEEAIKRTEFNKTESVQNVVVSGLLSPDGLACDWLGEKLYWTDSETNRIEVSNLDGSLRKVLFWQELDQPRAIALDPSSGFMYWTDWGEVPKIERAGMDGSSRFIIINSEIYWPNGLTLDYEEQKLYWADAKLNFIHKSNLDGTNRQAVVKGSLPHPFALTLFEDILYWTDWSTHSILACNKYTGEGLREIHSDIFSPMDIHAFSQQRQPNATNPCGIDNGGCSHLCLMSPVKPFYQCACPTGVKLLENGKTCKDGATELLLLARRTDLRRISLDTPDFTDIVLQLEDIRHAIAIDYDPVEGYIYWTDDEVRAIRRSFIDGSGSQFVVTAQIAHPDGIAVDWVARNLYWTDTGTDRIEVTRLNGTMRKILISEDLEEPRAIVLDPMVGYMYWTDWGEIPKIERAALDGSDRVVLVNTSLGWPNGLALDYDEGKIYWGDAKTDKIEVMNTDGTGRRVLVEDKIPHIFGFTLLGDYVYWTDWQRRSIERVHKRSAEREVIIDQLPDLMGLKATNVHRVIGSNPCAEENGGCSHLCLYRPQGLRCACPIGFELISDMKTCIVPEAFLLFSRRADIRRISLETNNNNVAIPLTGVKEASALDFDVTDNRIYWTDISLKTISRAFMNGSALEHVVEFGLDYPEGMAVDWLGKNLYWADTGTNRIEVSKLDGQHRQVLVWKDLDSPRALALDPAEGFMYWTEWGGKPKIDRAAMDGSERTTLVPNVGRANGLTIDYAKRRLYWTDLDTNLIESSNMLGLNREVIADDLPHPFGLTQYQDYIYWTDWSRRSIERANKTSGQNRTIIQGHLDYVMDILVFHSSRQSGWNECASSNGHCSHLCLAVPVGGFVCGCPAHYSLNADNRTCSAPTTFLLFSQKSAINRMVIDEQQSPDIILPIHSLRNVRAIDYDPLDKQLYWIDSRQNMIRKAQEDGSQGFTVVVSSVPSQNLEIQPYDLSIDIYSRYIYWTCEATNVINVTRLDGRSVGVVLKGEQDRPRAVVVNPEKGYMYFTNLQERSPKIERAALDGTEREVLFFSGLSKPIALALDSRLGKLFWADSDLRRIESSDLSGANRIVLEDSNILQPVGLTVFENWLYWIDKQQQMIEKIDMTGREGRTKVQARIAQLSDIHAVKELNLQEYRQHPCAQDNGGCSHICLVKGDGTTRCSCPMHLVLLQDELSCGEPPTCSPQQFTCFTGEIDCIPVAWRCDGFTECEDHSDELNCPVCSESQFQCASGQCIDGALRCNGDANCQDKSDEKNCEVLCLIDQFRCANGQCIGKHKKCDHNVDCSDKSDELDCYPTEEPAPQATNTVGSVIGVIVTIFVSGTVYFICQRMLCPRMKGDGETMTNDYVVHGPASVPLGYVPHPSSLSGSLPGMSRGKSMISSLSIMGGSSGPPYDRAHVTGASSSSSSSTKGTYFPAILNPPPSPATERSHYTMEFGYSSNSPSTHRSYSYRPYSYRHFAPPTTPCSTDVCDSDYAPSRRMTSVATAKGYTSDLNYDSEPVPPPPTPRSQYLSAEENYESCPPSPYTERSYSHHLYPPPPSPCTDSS
UniProt Q7Z4F1: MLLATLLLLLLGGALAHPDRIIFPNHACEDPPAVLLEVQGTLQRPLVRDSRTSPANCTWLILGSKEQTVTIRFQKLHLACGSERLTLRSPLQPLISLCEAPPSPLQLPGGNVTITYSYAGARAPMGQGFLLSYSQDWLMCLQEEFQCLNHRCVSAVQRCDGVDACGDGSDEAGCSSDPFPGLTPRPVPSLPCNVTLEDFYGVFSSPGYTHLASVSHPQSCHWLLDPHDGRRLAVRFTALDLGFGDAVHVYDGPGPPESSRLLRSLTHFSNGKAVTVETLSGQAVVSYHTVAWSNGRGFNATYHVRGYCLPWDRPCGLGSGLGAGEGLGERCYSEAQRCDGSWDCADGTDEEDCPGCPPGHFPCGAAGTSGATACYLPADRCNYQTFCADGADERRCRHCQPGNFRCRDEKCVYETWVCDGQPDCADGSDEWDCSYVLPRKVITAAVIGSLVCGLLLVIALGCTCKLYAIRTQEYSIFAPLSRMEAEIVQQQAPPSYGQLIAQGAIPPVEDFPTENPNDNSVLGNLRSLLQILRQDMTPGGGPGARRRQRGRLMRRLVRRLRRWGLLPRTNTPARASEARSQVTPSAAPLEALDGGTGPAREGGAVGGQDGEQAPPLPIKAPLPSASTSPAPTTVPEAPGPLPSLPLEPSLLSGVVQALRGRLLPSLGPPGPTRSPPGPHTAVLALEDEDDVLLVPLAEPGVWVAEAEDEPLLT
UniProt O94898: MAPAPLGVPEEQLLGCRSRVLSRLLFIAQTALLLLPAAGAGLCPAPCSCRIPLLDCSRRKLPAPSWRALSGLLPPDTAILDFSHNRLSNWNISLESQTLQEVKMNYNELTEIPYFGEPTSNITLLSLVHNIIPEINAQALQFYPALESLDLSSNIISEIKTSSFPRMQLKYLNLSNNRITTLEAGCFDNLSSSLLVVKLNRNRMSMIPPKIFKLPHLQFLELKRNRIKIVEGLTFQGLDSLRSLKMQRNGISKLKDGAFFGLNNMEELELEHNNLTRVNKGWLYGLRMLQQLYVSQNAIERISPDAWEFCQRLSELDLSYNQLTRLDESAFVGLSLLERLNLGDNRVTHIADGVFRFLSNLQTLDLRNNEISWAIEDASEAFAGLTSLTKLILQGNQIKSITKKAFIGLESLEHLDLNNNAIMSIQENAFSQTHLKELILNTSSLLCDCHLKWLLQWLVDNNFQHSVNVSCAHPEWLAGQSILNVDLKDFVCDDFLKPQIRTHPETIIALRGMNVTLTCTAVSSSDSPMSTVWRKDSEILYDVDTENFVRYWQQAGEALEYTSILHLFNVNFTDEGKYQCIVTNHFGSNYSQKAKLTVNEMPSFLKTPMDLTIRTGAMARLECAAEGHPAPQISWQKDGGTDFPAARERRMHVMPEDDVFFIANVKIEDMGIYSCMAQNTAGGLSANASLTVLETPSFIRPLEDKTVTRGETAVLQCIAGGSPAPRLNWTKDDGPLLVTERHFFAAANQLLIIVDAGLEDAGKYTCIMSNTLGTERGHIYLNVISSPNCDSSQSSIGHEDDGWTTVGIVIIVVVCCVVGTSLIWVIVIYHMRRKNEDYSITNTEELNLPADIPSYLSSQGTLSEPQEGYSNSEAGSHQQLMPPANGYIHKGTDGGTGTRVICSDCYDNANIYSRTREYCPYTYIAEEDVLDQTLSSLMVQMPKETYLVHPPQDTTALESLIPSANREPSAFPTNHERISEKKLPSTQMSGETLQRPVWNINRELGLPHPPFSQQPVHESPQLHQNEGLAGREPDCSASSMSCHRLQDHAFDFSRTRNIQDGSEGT
UniProt Q8N3X6: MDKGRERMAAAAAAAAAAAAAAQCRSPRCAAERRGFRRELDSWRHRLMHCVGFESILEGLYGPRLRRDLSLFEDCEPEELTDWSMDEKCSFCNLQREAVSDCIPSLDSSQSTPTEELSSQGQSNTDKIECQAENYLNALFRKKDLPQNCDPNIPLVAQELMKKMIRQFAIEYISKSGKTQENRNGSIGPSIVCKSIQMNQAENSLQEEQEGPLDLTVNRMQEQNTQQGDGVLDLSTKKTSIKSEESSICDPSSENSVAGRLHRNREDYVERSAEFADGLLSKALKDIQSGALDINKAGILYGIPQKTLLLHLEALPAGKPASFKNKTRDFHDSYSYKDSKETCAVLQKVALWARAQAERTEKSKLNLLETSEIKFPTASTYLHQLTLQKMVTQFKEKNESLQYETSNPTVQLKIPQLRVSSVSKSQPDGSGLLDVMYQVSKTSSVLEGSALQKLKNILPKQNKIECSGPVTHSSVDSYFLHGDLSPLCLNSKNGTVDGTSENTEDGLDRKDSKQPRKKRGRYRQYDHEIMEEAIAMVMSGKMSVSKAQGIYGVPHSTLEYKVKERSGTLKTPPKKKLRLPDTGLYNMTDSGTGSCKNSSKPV

Experiments:
Assay in all cases: log2 fold change, soluble protein after heating vs DMSO (PISA); higher = thermal stabilisation; K562 lysate, 10 uM; active = over 0.2 and 3.5 SD of the protein, either way, in both replicates (recomputed)
erlotinib = compound: C#Cc1cccc(Nc2ncnc3cc(OCCOC)c(OCCOC)cc23)c1 [erlotinib]
Outline: (§1)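 Values give the log-two fold change in thermal stability against solvent controls, from duplicates. Crude K562 extract at 1 mg/mL protein, made by dounce homogenisation in PBS pH 7.4 with 1 mM MgCl2, was treated with 10 μM compound for 30 min. After 3 min heating across 48°C-58°C, aliquots were pooled, adjusted to 0.5% NP-40 at 4°C and centrifuged at 21,000xg for 90 min. The supernatant was measured by TMTpro 16plex LC-MS/MS with channel sums equalised.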

[1] = compound: C/C(=N\NC(=O)C1=CC(=CC=C1)S(=O)(=O)N2CCOCC2)/C3=C(C=CC(=C3)Cl)O
Outline: as §1

[2] = compound: C1=CC(=CC=C1C2=NC3=C(N2)C=C(C=C3)C(=O)N)OC4=CC=C(C=C4)Cl
Outline: as §1

[3] = compound: C1=CC2=C(C=CC(=C2)/C=C\3/C(=O)NC(=NCC4=CC=CS4)S3)N=C1
Outline: as §1

[4] = compound: C1=CC2=NC=CN=C2C=C1/C=C/3\C(=O)NC(=O)S3
Outline: as §1

[5] = compound: C1=CC=C(C=C1)C2=NC(=C(N2)C3=CC=NC=C3)C4=CC(=C(C=C4)Cl)O
Outline: as §1

[6] = compound: C1=CC=C2C(=C1)C3=NNC4=CC=CC(=C43)C2=O
Outline: as §1

[7] = compound: C1CCN(C1)C(=O)NC2=CC=CC(=C2)NC3=NC=C(C(=N3)NCCC4=CN=CN4)Br
Outline: as §1

[8] = compound: C1CN(CCC1(CC2=CC=C(C=C2)Cl)N)C3=NC=NC4=C3C=CN4
Outline: as §1

IRAK-1-4 Inhibitor I = compound: C1COCCN1CCN2C3=CC=CC=C3N=C2NC(=O)C4=CC(=CC=C4)[N+](=O)[O-] [IRAK-1-4 Inhibitor I]
Outline: as §1

ibrutinib = compound: C=CC(=O)N1CCC[C@@H](n2nc(-c3ccc(Oc4ccccc4)cc3)c3c(N)ncnc32)C1 [ibrutinib]
Outline: as §1

[9] = compound: CC(=O)c1cnc2ccc(-c3cc(Cl)c(O)c(Cl)c3)nc2c1N[C@H]1CC[C@H](CN(C)C)CC1
Outline: as §1

ralimetinib = compound: CC(C)(C)Cn1c(N)nc2ccc(-c3[nH]c(C(C)(C)C)nc3-c3ccc(F)cc3)nc21 [ralimetinib]
Outline: as §1

[10] = compound: CC(C)(O)CC(=O)NCCn1ccc2ncnc(Nc3ccc(Oc4cccc(C(F)(F)F)c4)c(Cl)c3)c21
Outline: as §1

[11] = compound: CC(C)C1=C2N=C(C=C(N2N=C1)NCC3=CC=CC=C3)NCCCCCCN
Outline: as §1

[12] = compound: CC1=C(C(CC(=O)N1)C2=CC=C(C=C2)C(F)(F)F)C(=O)NC3=C(C=C4C(=C3)C=NN4)F
Outline: as §1

[13] = compound: CC1=C(C2=C(C=C1)C(=O)C3=CC=CC=C3N2CCCN)C
Outline: as §1

[14] = compound: CC1=C(C=C(C=C1)NC(=O)C2=CC(=CC=C2)C(C)(C)C#N)NC3=CC4=C(C=C3)N=CN(C4=O)C
Outline: as §1

[15] = compound: CC1=C(C=C(C=C1)NC(=O)C2=CC(=CC=C2)N(C)C)NC(=O)C3=CC=C(C=C3)O
Outline: as §1

[16] = compound: CC1=CC=C(C=C1)SC2=C3C=C(SC3=CN=C2)C(=O)N
Outline: as §1

Measured: log2 fold change

LDAH isoform 2 (UniProt Q9H6V9)
inactive: erlotinib -0.017 | [1] -0.015 | [2] -0.057 | [3] -0.023 | [4] 0.005 | [5] -0.01 | [6] -0.021 | [7] -0.032 | [8] 0 | IRAK-1-4 Inhibitor I 0.029 | ibrutinib 0.015 | [9] 0.021 | ralimetinib 0.029 | [10] 0.097 | [11] -0.018 | [12] 0.006 | [13] 0.029 | [14] 0.007 | [15] 0 | [16] 0.014

LGALS8 isoform 2 (UniProt O00214)
inactive: erlotinib -0.004 | [1] 0.055 | [2] 0.012 | [3] 0.072 | [4] 0.107 | [5] 0.002 | [6] 0.021 | [7] -0.009 | [8] 0.048 | IRAK-1-4 Inhibitor I 0.029 | ibrutinib 0.014 | [9] 0.003 | ralimetinib 0.021 | [10] -0.064 | [11] 0.009 | [12] 0.01 | [13] -0.041 | [14] 0.035 | [15] -0.005 | [16] -0.011

LSM8 (UniProt O95777)
inactive: erlotinib -0.034 | [1] 0.003 | [2] -0.003 | [3] 0.027 | [5] -0.026 | [6] 0.066 | [7] -0.008 | [8] -0.021 | IRAK-1-4 Inhibitor I 0.028 | ibrutinib 0.051 | [9] 0.012 | ralimetinib 0.055 | [10] -0.021 | [11] -0.02 | [12] -0.01 | [13] -0.011 | [14] 0.03 | [15] -0.007 | [16] 0.005
active: [4] 0.423

LASP1 (UniProt Q14847)
inactive: erlotinib -0.014 | [1] -0.005 | [2] -0.041 | [3] -0.01 | [4] -0.031 | [5] 0.031 | [6] 0.007 | [7] 0.03 | [8] 0.001 | IRAK-1-4 Inhibitor I -0.017 | ibrutinib 0.019 | [9] -0.014 | ralimetinib -0.031 | [10] 0.011 | [11] -0.026 | [12] -0.007 | [13] -0.009 | [14] 0.008 | [15] 0.013 | [16] -0.013

LSS (UniProt P48449)
inactive: erlotinib -0.023 | [1] 0.057 | [2] 0.001 | [3] 0.053 | [4] -0.005 | [5] 0.037 | [6] -0.006 | [7] -0.094 | [8] 0.019 | IRAK-1-4 Inhibitor I 0 | ibrutinib -0.009 | [9] -0.018 | ralimetinib 0.14 | [10] 0.072 | [11] 0.026 | [12] 0.013 | [13] -0.131 | [14] -0.003 | [15] -0.04 | [16] -0.065

LMF2 (UniProt Q9BU23)
inactive: erlotinib -0.019 | [1] -0.098 | [2] 0.106 | [3] -0.043 | [4] 0.014 | [6] -0.132 | [7] 0.073 | [8] 0.064 | ibrutinib -0.062 | [11] 0.061 | [12] 0.064 | [13] -0.059 | [14] -0.005

LEPROTL1 isoform 2 (UniProt O95214)
inactive: erlotinib 0.128 | [1] -0.366 | [2] -0.085 | [3] -0.1 | [4] -0.053 | [5] -0.034 | [6] 0.055 | IRAK-1-4 Inhibitor I 0.155 | ibrutinib 0.011 | [9] -0.019 | ralimetinib 0.083 | [10] 0.102 | [11] -0.033 | [13] -0.015 | [15] 0.01 | [16] 0.121

LPCAT1 (UniProt Q8NF37)
inactive: erlotinib 0.056 | [1] -0.052 | [2] -0.057 | [3] 0.054 | [4] 0.062 | [5] -0.09 | [6] -0.014 | [7] -0.007 | [8] -0.025 | IRAK-1-4 Inhibitor I 0.04 | ibrutinib 0.175 | [9] -0.021 | ralimetinib 0 | [10] -0.142 | [11] -0.036 | [12] 0.066 | [13] -0.011 | [14] 0.003 | [15] -0.016 | [16] -0.019

LRRC42 (UniProt Q9Y546)
inactive: erlotinib -0.062 | [1] 0.04 | [2] -0.155 | [3] -0.046 | [5] 0.067 | [6] -0.03 | [7] 0.094 | [8] -0.013 | IRAK-1-4 Inhibitor I -0.046 | ralimetinib -0.165 | [10] -0.042 | [11] -0.245 | [12] -0.085 | [13] 0.037 | [14] 0.029 | [15] 0.019

LSM11 (UniProt P83369)
inactive: erlotinib 0.104 | [1] 0.262 | [2] 0.065 | [3] -0.056 | [6] -0.044 | [7] -0.029 | [8] -0.055 | [11] 0.004 | [13] -0.198 | [14] -0.161

LLPH (UniProt Q9BRT6)
inactive: erlotinib -0.001 | [1] -0.042 | [2] -0.003 | [3] 0.061 | [4] -0.049 | [5] 0.024 | [6] 0.051 | [7] 0.038 | [8] -0.071 | IRAK-1-4 Inhibitor I -0.039 | ibrutinib 0.068 | [9] 0.024 | ralimetinib -0.002 | [10] 0.053 | [11] -0.011 | [12] 0.062 | [13] 0.009 | [14] -0.072 | [15] -0.026 | [16] -0.001

LRP6 (UniProt O75581)
inactive: erlotinib -0.057 | [2] 0.048 | [4] -0.094 | [5] 0.039 | [7] 0.023 | [8] 0.073 | IRAK-1-4 Inhibitor I 0.007 | ibrutinib -0.077 | ralimetinib -0.112 | [10] -0.055 | [11] -0.01 | [13] 0.005 | [14] -0.051 | [15] 0.01

LRP10 (UniProt Q7Z4F1)
inactive: erlotinib -0.028 | [2] -0.109 | [4] -0.097 | [5] 0.234 | [7] -0.061 | [8] -0.057 | IRAK-1-4 Inhibitor I -0.103 | ibrutinib 0.029 | ralimetinib -0.007 | [10] 0.083 | [11] -0.208 | [13] -0.074 | [15] -0.089

LRIG2 (UniProt O94898)
inactive: erlotinib -0.065 | [1] -0.051 | [2] 0.085 | [3] -0.055 | [5] 0.046 | [6] -0.094 | [7] -0.125 | [8] -0.056 | IRAK-1-4 Inhibitor I -0.032 | [9] 0.236 | ralimetinib 0.121 | [10] -0.001 | [11] 0.006 | [12] -0.079 | [13] 0.067 | [14] 0.07 | [15] -0.017 | [16] -0.053

LDHA isoform 3 (UniProt P00338)
inactive: erlotinib -0.011 | [1] -0.025 | [2] 0.023 | [3] -0.022 | [4] 0.004 | [5] -0.003 | [6] 0.029 | [7] 0.006 | [8] 0.013 | IRAK-1-4 Inhibitor I 0.017 | ibrutinib 0.025 | [9] -0.013 | ralimetinib 0.006 | [10] 0.043 | [11] 0.01 | [12] -0.027 | [13] 0.009 | [14] 0.006 | [15] -0.032 | [16] -0.023

LCORL (UniProt Q8N3X6)
inactive: erlotinib 0.096 | [1] -0.258 | [2] -0.059 | [3] 0.121 | [5] 0.011 | [6] 0.134 | IRAK-1-4 Inhibitor I 0.017 | ralimetinib 0.069 | [10] -0.077 | [11] 0.112 | [15] -0.321

LSM5 (UniProt Q9Y4Y9)
inactive: erlotinib -0.241 | [1] 0.027 | [2] -0.154 | [3] -0.001 | [4] -0.021 | [5] -0.216 | [6] 0 | [7] 0 | [8] -0.203 | IRAK-1-4 Inhibitor I -0.031 | ibrutinib -0.098 | [9] 0.014 | ralimetinib 0.048 | [10] 0.018 | [11] 0.068 | [13] -0.009 | [14] -0.062 | [15] 0.144 | [16] -0.238

LLGL2 (UniProt Q6P1M3)
inactive: erlotinib -0.4 | [1] 0.236 | [2] -0.094 | [3] 0.284 | [6] 0.005 | [7] 0.058 | [8] -0.398 | [9] 0.041 | [11] 0.209 | [12] -0.119 | [13] 0.021 | [14] -0.217 | [16] 0.046

Fetched one by one from the entries so far (2):
LRIG2 (UniProt O94898)
inactive: erlotinib -0.065 | [1] -0.051 | [2] 0.085 | [3] -0.055 | [5] 0.046 | [6] -0.094 | [7] -0.125 | [8] -0.056 | IRAK-1-4 Inhibitor I -0.032 | [9] 0.236 | ralimetinib 0.121 | [10] -0.001 | [11] 0.006 | [12] -0.079 | [13] 0.067 | [14] 0.07 | [15] -0.017 | [16] -0.053

LDHA isoform 3 (UniProt P00338)
inactive: erlotinib -0.011 | [1] -0.025 | [2] 0.023 | [3] -0.022 | [4] 0.004 | [5] -0.003 | [6] 0.029 | [7] 0.006 | [8] 0.013 | IRAK-1-4 Inhibitor I 0.017 | ibrutinib 0.025 | [9] -0.013 | ralimetinib 0.006 | [10] 0.043 | [11] 0.01 | [12] -0.027 | [13] 0.009 | [14] 0.006 | [15] -0.032 | [16] -0.023

Continued:

LBR (UniProt Q14739)
inactive: erlotinib 0.03 | [1] 0.052 | [2] -0.066 | [3] -0.021 | [4] -0.081 | [5] -0.028 | [6] -0.08 | [7] -0.032 | [8] 0.005 | IRAK-1-4 Inhibitor I 0.028 | ibrutinib 0.034 | [9] -0.01 | ralimetinib 0.019 | [10] -0.121 | [11] -0.029 | [12] 0.018 | [13] 0.065 | [14] -0.089 | [15] -0.026 | [16] -0.036
